Results published in publication PMC5996148.
Some of the results follow. For some assays here: The exact form of the protein is not confirmed.

Legend:
Test in all cases: protein microarray (ProtoArray v5.0), streptavidin-Alexa Fluor 647
Settings in all cases: 3'-biotin; 20 mM Tris (pH 7.5), 5 mM MgCl2, 100 mM KCl, 0.1% Tween-20, A/T-rich and random oligonucleotide blockers; temperature not stated; high values mean tight binding
[1] = tested on: mRNA similar to hypothetical protein FLJ20234 (human)
o (human) = tested on: o (human)
[2] = tested on: protein for MGC:19786 (human)
rC (human) = tested on: rC (human)
[3] = tested on: rRNA-processing protein FCF1 homolog (human)
raptor (human) = tested on: raptor (human)
[4] = tested on: tRNA modification GTPase GTPBP3, mitochondrial (human)
[5] = tested on: 14-3-3 protein sigma (human)
[6] = tested on: 26S proteasome non-ATPase regulatory subunit 7 (human)
[7] = tested on: 3-hydroxyanthranilate 3,4-dioxygenase (human)
[8] = tested on: 40S ribosomal protein SA (human)
5 (human) = tested on: 5 (human)
[9] = tested on: 60S ribosomal protein L29 (human)
[10] = tested on: A-kinase anchor protein 14 (human)
[11] = tested on: A.T hook DNA-binding motif-containing protein 1 (human)
AATF (human) = tested on: AATF (human)
ABHD4 (human) = tested on: ABHD4 (human)
ACAD9 (human) = tested on: ACAD9 (human)
ACAN (human) = tested on: ACAN (human)
ACBD6 = target: T1, ACBD6 (UniProt Q9BR61)
T1 sequence: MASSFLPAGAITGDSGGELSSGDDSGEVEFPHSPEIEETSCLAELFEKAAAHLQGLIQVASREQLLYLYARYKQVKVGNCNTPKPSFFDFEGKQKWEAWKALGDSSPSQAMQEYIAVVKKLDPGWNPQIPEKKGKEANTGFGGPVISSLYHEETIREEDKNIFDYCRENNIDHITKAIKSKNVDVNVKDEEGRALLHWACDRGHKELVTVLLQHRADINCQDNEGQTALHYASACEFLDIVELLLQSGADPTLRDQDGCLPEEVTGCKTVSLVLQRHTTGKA

Sequence	binding signal [1]	binding signal (o (human))	binding signal [2]	binding signal (rC (human))	binding signal [3]	binding signal (raptor (human))	binding signal [4]	binding signal [5]	binding signal [6]	binding signal [7]	binding signal [8]	binding signal (5 (human))	binding signal [9]	binding signal [10]	binding signal [11]	binding signal (AATF (human))	binding signal (ABHD4 (human))	binding signal (ACAD9 (human))	binding signal (ACAN (human))	binding signal (ACBD6)
GGGAGGCTGAGGCAGG [G4-1 biotinylated (PQS2)]	-0.323 z-score	-0.309 z-score	-0.353 z-score	-0.338 z-score	3.18 z-score	-0.305 z-score	-0.333 z-score	–	–	–	–	–	–	–	–	–	–	–	–	–
GGTGACAGGGGTATGGGGAGGGG [G4-2 biotinylated (Ct1)]	–	–	–	–	–	–	–	-0.4 z-score	-0.38 z-score	-0.4 z-score	-0.383 z-score	-0.375 z-score	4.9 z-score	-0.384 z-score	-0.39 z-score	-0.375 z-score	-0.366 z-score	-0.373 z-score	-0.377 z-score	-0.379 z-score
